# From the supplement of paper PMC10470496
# Structures can show the parent of a compound that is named as a salt. This is one part of the list. Single values are uncertain, as repeats are few or missing.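 The strains were three CDC resistance-bank clinical C. auris isolates from clades III, IV and I, cultured in RPMI-1640 at 35°C. Growth was background-corrected OD600 versus vehicle-only wells on the same plate. A hit needed >50% inhibition in two or more strains plus a plate-corrected B-score exceeding 0.1.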
# How the values were obtained:
# Experiment in all cases: growth relative to vehicle control (OD600 ratio) (fraction); higher = less inhibition
# Conditions in all cases: 24 h
# C. auris AR-384 = system: C. auris AR-384
# C. auris AR-386 = system: C. auris AR-386
# C. auris AR-387 = system: C. auris AR-387
Structure (SMILES),growth (C. auris AR-384; 1 µM),growth (C. auris AR-384; 10 µM),growth (C. auris AR-386; 1 µM),growth (C. auris AR-386; 10 µM),growth (C. auris AR-387; 1 µM),growth (C. auris AR-387; 10 µM)
COc1cc(N)c(Cl)cc1C(=O)NC1CCN(CCCOc2ccc(F)cc2)CC1OC (centres undefined) [Cisapride hydrate],0.82,0.68,0.84,0.7,0.61,0.72
N#C[C@@H]1CCCN1C(=O)CNC12CC3CC(CC(O)(C3)C1)C2 [Vildagliptin (LAF-237)],1,0.81,1.08,1.02,0.92,0.9
CC(=O)Nc1ccccc1 [Acetanilide],0.88,0.92,0.9,0.9,1.04,1.03
CCOC(=O)OC(C)OC1=C(C(=O)Nc2ccccn2)N(C)S(=O)(=O)c2ccccc21 (centres undefined) [Ampiroxicam],0.8,0.88,0.67,0.79,0.76,0.94
CCCN[C@H]1CCc2nc(N)sc2C1 [Pramipexole 2HCl Monohydrate],0.68,0.78,0.98,0.71,0.91,0.72
CN1CCCCC1CCN1c2ccccc2Sc2ccc([S+](C)[O-])cc21 (centres undefined) [Mesoridazine Besylate],0.96,0.81,0.77,0.78,0.77,1
CC[C@H]1OC(=O)C[C@@H](O)[C@H](C)[C@@H](O[C@@H]2O[C@H](C)[C@@H](O[C@H]3C[C@@](C)(O)[C@@H](O)[C@H](C)O3)[C@H](N(C)C)[C@H]2O)[C@@H](CC=O)C[C@@H](C)C(=O)/C=C/C(C)=C/[C@@H]1CO[C@@H]1O[C@H](C)[C@@H](O)[C@@H](OC)[C@H]1OC [Tylosin tartrate],0.69,0.99,1.14,1.01,0.98,0.61
CN1CCC(=C2c3ccccc3CCn3c(C=O)cnc32)CC1 [Alcaftadine],0.9,0.8,0.88,0.61,0.68,0.69
COc1cc(OC)c(C(=O)CCCN2CCCC2)c(OC)c1 [Buflomedil HCl],0.96,1.02,1.07,1.01,1.19,1.05
CNC(=O)c1ccccc1Sc1ccc2c(/C=C/c3ccccn3)n[nH]c2c1 [Axitinib],0.78,0.7,0.58,0.92,1.19,0.63
CCC(C)(Oc1ccc(C2(c3ccc(OC(C)(CC)C(=O)O)cc3)CCCCC2)cc1)C(=O)O (centres undefined) [Clinofibrate],0.8,0.92,0.84,0.95,0.83,1.03
CC(=O)Oc1cc2c(s1)CCN(C(C(=O)C1CC1)c1ccccc1F)C2 (centres undefined) [Prasugrel Hydrochloride],0.82,0.82,0.8,0.69,1.05,0.91
CCn1cc(C(=O)O)c(=O)c2ccc(C)nc21 [Nalidixic acid],0.87,0.74,0.92,0.72,1.15,0.85
Clc1ccc(C(Cn2ccnc2)OCc2csc3c(Cl)cccc23)c(Cl)c1 (centres undefined) [Sertaconazole nitrate],0.49,0.29,0.67,0.74,0.05,0.02
CC1=C(/C=C/C(C)=C/C=C/C(C)=C\C(=O)O)C(C)(C)CCC1 [Isotretinoin],0.82,1.48,1.19,1.28,0.85,1.2
CN(C)Cc1c(C(=O)NCCOc2ccc(C(=O)NO)cc2)oc2ccccc12,0.84,0.91,0.73,0.59,0.73,0.71
COc1ccc(/C=C/C(=O)Nc2ccccc2C(=O)O)cc1OC [Tranilast],0.71,0.53,0.71,1.24,0.75,0.65
O=C(O)Cc1cc(I)c(Oc2ccc(O)c(I)c2)c(I)c1 [Tiratricol],0.8,0.92,1.01,1.15,0.73,0.95
CC(=O)NS(=O)(=O)c1ccc(NC(=O)c2ccccc2C(=O)O)cc1 [Phthalylsulfacetamide],0.79,0.82,0.96,0.69,0.5,0.62
CC(C)Cc1ccc(C(C)C(=O)O)cc1 (centres undefined) [Ibuprofen Lysine],1.19,1.38,1.15,1.17,1.28,1.08
N#CC1(c2ccc(NC(=O)c3cccnc3NCc3ccncc3)cc2)CCCC1 [Apatinib mesylate],1.02,1,1.07,1.07,0.78,0.84
CN1CC2c3ccccc3Oc3ccc(Cl)cc3C2C1 (centres undefined) [Asenapine maleate],0.98,0.59,0.82,1.17,1.03,0.83
N#CC(c1ccc(Cl)cc1)c1c(Cl)cc(-n2ncc(=O)[nH]c2=O)cc1Cl (centres undefined) [Diclazuril],0.78,0.74,0.81,0.94,1.24,0.87
CO/N=C(\C(=O)N[C@@H]1C(=O)N2C(C(=O)[O-])=C(C[n+]3cccc4c3CCC4)CS[C@H]12)c1csc(N)n1 [Cefpirome sulfate],0.79,1.17,1.08,1.02,0.93,0.89
CCc1oc2ccccc2c1C(=O)c1cc(Br)c(O)c(Br)c1 [Benzbromarone],0.94,0.8,1.09,0.8,0.74,0.54

# One compound at a time, from the list above. Values in the order: growth (C. auris AR-384; 1 µM)	growth (C. auris AR-384; 10 µM)	growth (C. auris AR-386; 1 µM)	growth (C. auris AR-386; 10 µM)	growth (C. auris AR-387; 1 µM)	growth (C. auris AR-387; 10 µM)
# CO/N=C(\C(=O)N[C@@H]1C(=O)N2C(C(=O)[O-])=C(C[n+]3cccc4c3CCC4)CS[C@H]12)c1csc(N)n1 [Cefpirome sulfate] reads 0.79	1.17	1.08	1.02	0.93	0.89
# CCn1cc(C(=O)O)c(=O)c2ccc(C)nc21 [Nalidixic acid] reads 0.87	0.74	0.92	0.72	1.15	0.85

# More entries.

Structure (SMILES),growth (C. auris AR-384; 1 µM),growth (C. auris AR-384; 10 µM),growth (C. auris AR-386; 1 µM),growth (C. auris AR-386; 10 µM),growth (C. auris AR-387; 1 µM),growth (C. auris AR-387; 10 µM)
C[C@@H](c1ncncc1F)[C@](O)(Cn1cncn1)c1ccc(F)cc1F [Voriconazole],0.36,0.29,0.62,0.45,0.04,0.02
O=C(O)c1ccc2c(c1)nc(Nc1cccc(Cl)c1)c1ccncc12 [Silmitasertib (CX-4945)],0.72,0.75,0.93,0.63,0.65,0.72
COc1ccc(C(=O)NCc2ccc(OCCN(C)C)cc2)cc1OC [Itopride hydrochloride],1.22,1.02,1.43,1.33,1.19,1.17
CC(C)(C)CC(C)(C)c1ccc(OCCOCC[N+](C)(C)Cc2ccccc2)cc1 [Benzethonium Chloride],0.97,0.72,0.67,0.09,0.74,0.82
Cc1nc2n(c(=O)c1CCN1CCC(c3noc4cc(F)ccc34)CC1)CCCC2O (centres undefined) [Paliperidone],1.2,1.06,1.12,0.94,0.78,0.84
O=C(CCCCCCNC(=O)c1cnc(N(c2ccccc2)c2ccccc2)nc1)NO [Ricolinostat (ACY-1215)],0.78,0.76,1.07,0.75,0.87,0.79
Clc1ccc(COC(Cn2ccnc2)c2ccc(Cl)cc2Cl)c(Cl)c1 (centres undefined) [Miconazole],0.48,0.23,0.66,0.67,0.06,0.6
Cc1nnc(NS(=O)(=O)c2ccc(N)cc2)s1 [Sulfamethizole],0.74,0.94,0.58,0.94,0.88,1.06
C=CC(=O)Nc1cccc(Oc2nc(Nc3ccc(N4CCN(C)CC4)cc3)nc3ccsc23)c1,0.95,0.78,0.64,0.5,0.61,0.69
OC1(c2ccc(Cl)c(C(F)(F)F)c2)CCN(CCCC(c2ccc(F)cc2)c2ccc(F)cc2)CC1 [Penfluridol],0.84,0.66,0.7,0.76,0.71,0.44
CC(C(=O)O)c1cccc(Oc2ccccc2)c1 (centres undefined) [Fenoprofen calcium hydrate],0.76,0.62,0.73,0.83,0.69,0.86
CS(=O)(=O)c1cccc(C[C@H](NC(=O)c2c(Cl)cc3c(c2Cl)CCN(C(=O)c2ccc4ccoc4c2)C3)C(=O)O)c1 [Lifitegrast],1.09,0.91,0.92,1.05,0.9,0.92
Nc1cc(C(Cl)=C(Cl)Cl)c(S(N)(=O)=O)cc1S(N)(=O)=O [Clorsulon],1.12,0.89,1.29,1,0.88,0.66
Cc1ccc(C(=O)c2ccc(CC(=O)O)n2C)cc1 [Tolmetin Sodium],0.73,1.26,0.82,0.94,0.86,0.94
CCC[C@H](N[C@@H](C)C(=O)N1[C@H](C(=O)O)C[C@@H]2CCCC[C@@H]21)C(=O)OCC [Perindopril Erbumine],1.19,1.18,1.02,1.23,1.01,0.96
CC12CC3CC(C)(C1)CC(N)(C3)C2 [Memantine HCl],0.84,0.84,0.83,0.81,1.05,0.93
CCOC(=O)c1ccc(N)cc1 [Benzocaine hydrochloride],0.77,0.64,0.83,0.97,0.67,0.85
"CC1(C)OC(=O)NC1=O [5,5-Dimethyloxazolidine-2,4-dione]",0.9,0.75,0.97,0.88,0.72,0.78
Oc1cccc(O)c1 [Resorcinol],1.01,0.84,0.68,0.91,0.76,0.87
Nc1ccc(S(=O)(=O)Nc2ncccn2)cc1 [Sulfadiazine],0.92,1.11,0.78,0.67,0.7,0.9
CN(C)c1ccc2nc3ccc(=[N+](C)C)cc-3sc2c1 [Methylene Blue],0.9,1.22,0.61,0.85,0.67,1.08
CCCNC(C)C(=O)Nc1ccccc1C (centres undefined) [Prilocaine],0.76,1.28,1.01,0.56,0.7,0.59
CC[C@H]1OC(=O)[C@H](C)[C@@H](O[C@H]2C[C@@](C)(OC)[C@@H](O)[C@H](C)O2)[C@H](C)[C@@H](O[C@@H]2O[C@H](C)C[C@H](N(C)C)[C@H]2O)[C@](C)(O)C[C@@H](C)CN(C)[C@H](C)[C@@H](O)[C@]1(C)O [Azithromycin Dihydrate],0.93,0.79,0.93,0.86,0.63,0.86
CC(C)COc1ccc(CNC(=O)N(Cc2ccc(F)cc2)C2CCN(C)CC2)cc1 [Pimavanserin],1.2,1.16,0.87,0.94,0.58,0.98
